The supplement of paper PMC10338343
± gives the standard deviation. The entries are a selection whose mix differs from that of the whole data set. Many of these values have a large error.

These sequences were tested on MILI (PIWIL2) piRISC loaded with Kctd7 piRNA (26 nt) (assay: pre-steady-state target cleavage rate (min^-1); MIWI and MILI are mouse PIWI proteins and EfPiwi is from a freshwater sponge; tags in brackets are library labels; higher = faster piRNA-guided slicing of the target). Details: guide: Kctd7 piRNA 5'p-UGUUAAUCUCUCAGAGAAGGUGACAG; auxiliary factor: 500 nM mouse GTSF1.
Method: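 Cleave-'n-Seq: a library of target RNAs (target site embedded in constant flanks, ACAGCATTCCGCGTTAGTGATATCCG... 5' flank; DNA-blocked outside the site) at 0.1 nM was incubated with 1 nM active mouse MILI or MIWI piRISC (synthetic 5'-monophosphorylated piRNA guide) with or without 500 nM mouse GTSF1 at 33 °C for 1 min to 16 h. Uncleaved targets were sequenced and normalised to non-target controls, and the pooled three trials were fitted to a burst-and-steady-state model to give the pre-steady-state cleavage rate (min^-1; k3 is constrained to at most 1e-4). Sequence is the target site only; target names encode pairing extent (gX:gY) and contiguous / 1-mismatch / 2-mismatch / bulge geometry. Fits with R² ≤ 0 are excluded.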

| Sequence | pre-steady-state target cleavage rate |
| --- | --- |
| UAGUGACUCACCUUCUGUGAGAGUUUAACA | 0.0308 ± 0.01 |
| UAGUGACAGUGGAACUCUGAGAGAUUACACA | 0.000144 ± 0.043 |
| UAGUGACAGUGGUUCUCUGAGAGAUUAAGCA | 0.000764 ± 0.0057 |
| UAGUGACUCACCUUCUCUGAGACUAUAUGA | 0.000123 ± 0.024 |
| UAGUGACAGUGCUUCUCUGAGCAGAUUAACA | 0.001 ± 0.0059 |
| UAGUGACAGUGCAUCUCUGACAGAUUAACA | 0.000161 ± 0.013 |
| UAGUGACAGUGGUUCUCUGAGAGAUCAACA | 0.000151 ± 0.015 |
| UAGUGAGUCACCUUGUCUGAGAGAAUAACA | 0.00224 ± 0.0059 |
| UAGUGACUCACCUUCUCUGAGUCAUUAUGA | 0.000127 ± 0.14 |
| UAGUGACAGUGCUUCUGACAGAGAUUAACA | 0.000405 ± 0.011 |
| UAGUGACAGUGGAUCUCUGAGAAGAUUAACA | 0.000148 ± 0.021 |
| UAGUGACAGUGGAAGUCUGAGAGAUUUAACA | 0.000255 ± 0.0085 |
| UAGUGAGUCACCUUCUCUGAGUCAUUUUGA | 0.002 ± 0.0071 |
| UAGUGACAGUGCUUCUCUGAGUCAUUAAGA | 0.000183 ± 0.017 |
| UAGUGACUCACCUUGACUGAGAGAUUUUGA | 0.000406 ± 0.035 |
| UAGUGACUCACCUUCUACUGAGAGAUUAACA | 0.00162 ± 0.0067 |
| UAGUGAGUCACCUUCUCUGAGAGUAUAACA | 0.144 ± 0.057 |
| UAGUGACAGUGCUUCACUGAGAGAAUAACA | 0.0019 ± 0.0053 |
| UAGUGACUCACCUUCUCUGAGAGUUUUACA | 0.0214 ± 0.01 |
| UAGUGACAGUGGAUCUCUGAGAGAUUAACC [g2:g17:cont:t1C] | 0.000449 ± 0.0078 |

Part of the list above, as tab-separated lines.
Sequence	pre-steady-state target cleavage rate
UAGUGACAGUGCUUCUCUGAGCAGAUUAACA	0.001 ± 0.0059
UAGUGAGUCACCUUGUCUGAGAGAAUAACA	0.00224 ± 0.0059

(further entries)

| Sequence | pre-steady-state target cleavage rate |
| --- | --- |
| UAGUGUGUCUGGUUCUCUGAGAGAUUAUGA | 0.000339 ± 0.025 |
| UAGUGACAGACCUUCUCUGAGAGAUAAUGA | 0.00104 ± 0.01 |
| UAGUGACUCACCUUCUCUCAGUGAUUAACA | 0.00159 ± 0.0077 |
| UAGUGACUCAGCUUCUCUGAGAGAUAUUGA | 0.000733 ± 0.008 |
| UAGUGACACACCUUCUCUGUCUGAUUAACA | 0.00222 ± 0.0039 |
| UAGUGACAGUGGAACUCUGAGUAGAUUAACA | 0.000931 ± 0.017 |
| UAGUCUGUCACCUUCUCUAAGAGAUUAACA | 0.138 ± 0.0097 |
| UAGUGACUCACGUUCUCUGAGUGAUUAACA | 0.000765 ± 0.013 |
| UAGUGACAGUGGAAGAGACUGACAUUAUCA | 0.000263 ± 0.019 |
| UAGUGACUCAGGUUCUCUGAGAGAUUAUGA | 0.00103 ± 0.0056 |
| UAGUGACAGUGGAAGAGUGAGUGAUUUACA | 0.000274 ± 0.018 |
| UAGUCAGUCACCUUCUCUGAGAGAUUAAGA | 0.135 ± 0.024 |
| UAGUGACAGUGGAAGAGACACAGAAUAACA | 0.000202 ± 0.033 |
| UAGUGACUCACGAUCUCUGAGAGAUUAUGA | 0.00153 ± 0.0039 |
| UAGUGAGUCACCUUCUGACAGAGAUUAAGA | 0.00162 ± 0.0074 |
| UAGUGACACUGGUUCUCUGAGAGAUUUUGA | 0.000165 ± 0.074 |
| UAGUGACACACCUUCUCUGAGACUUAUUGA | 0.000267 ± 0.031 |
| UAGUGACUCACCUUCUCUGAGACUUAUUGA | 0.000196 ± 0.028 |
| UAGUGACACACCUUCUCUGAGUGAUUAUGA | 0.000452 ± 0.018 |
